# Primary screen of a compound library

Data taken from ChEMBL document CHEMBL3988442, “University of Dundee, Small-Polar-MMV Screening Library” (2021).

T. brucei: 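Whole-parasite assay of Trypanosoma brucei over 72 hours; the read-out is not stated. Tested at 30 µM. Direction is inferred from retests: higher values go with stronger inhibition. Values scatter widely below zero; nearly all retest evidence comes from the higher of the two concentrations used. About 64,000 compounds were tested under these conditions; 1.5% (about 940) showed 50% or more at least once.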
Leishmania in macrophages: 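Cell assay of Leishmania donovani living inside macrophages; the read-out is not stated. Tested at 30 µM. Higher reads as stronger inhibition (inferred: compounds with an IC50 in retests scored well above the rest). Of about 69,000 compounds tested this way, about 1,000 (1.5%) reached 50% or more in at least one test.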

Values are the deposited “Percent Effect”, in %.
How 0% and 100% were set is not recorded. Most values in the screen are low, and negative values occur.
This is an unselected part of the compounds tested.
Two or more numbers in one place are separate tests of the same structure; such repeats can differ widely.

CC(C)CC(NC(=O)OC(C)(C)C)C(N)=O (stereo not drawn) gave Leishmania in macrophages: -6.075%. Cc1cccc(C2CCCN2C(=O)CCS(C)(=O)=O)c1C (stereo not drawn) read T. brucei: 17.14%; Leishmania in macrophages: 8.754%. Result for CCc1cc(N2CCCC(c3noc(CC)n3)C2)ncn1 (stereo not drawn) was T. brucei: -37.59%; Leishmania in macrophages: 37.24%. CO[C@@H]1CN(c2ccccc2)S(=O)(=O)[C@@]12CCN(C(=O)N(C)C)C2 read T. brucei: 5.082%; Leishmania in macrophages: -6.308%. CC(C)c1nc2n(n1)CC(NCc1nnnn1C1CC1)CC2 (stereo not drawn) read T. brucei: 12.42%; Leishmania in macrophages: 18.24%. With CNC(=O)NC(=O)C(NCc1cccs1)c1ccccc1 (stereo not drawn) the screen gave T. brucei: -38.84%; Leishmania in macrophages: -17.3%. For CNC(=O)C1CCN(C(=O)NCc2ccc(C)n2C)CC1 the result was T. brucei: 0.9211%; Leishmania in macrophages: 5.615%. For Cn1ncc2c1C(COCC1CC1)CN(Cc1ccncc1)C2 (stereo not drawn) the result was T. brucei: -2.477%; Leishmania in macrophages: 34.69%.

With CNc1nc(C(=O)N2CCCC(c3nccn3CC3CCC3)C2)cs1 (stereo not drawn) the screen gave T. brucei: -47.95%; Leishmania in macrophages: 17.58%. With [H][C@]12CC[C@]([H])(CN(S(=O)(=O)N(C)C)C1)N(C/C=C/c1ccc(F)cc1)C2 the screen gave T. brucei: -71.15%; Leishmania in macrophages: 15.61%. For CC(C)N(Cc1ccccc1)Cc1nnsc1Cl the result was T. brucei: -15.14%; Leishmania in macrophages: -11.97%. With O=C(Cn1cnc(-c2ccccc2)cc1=O)Nc1ccncc1 the screen gave T. brucei: 47.34%; Leishmania in macrophages: 12.61%. Result for [H][C@@]12CCN(C(=O)c3ccncn3)C[C@@]1([H])O[C@H](C)C2 was T. brucei: -27.33%; Leishmania in macrophages: 12.66%. Cl.Cn1nc(C2CCCN(Cc3ccccc3)C2)c2nccnc21 (stereo not drawn) gave T. brucei: -0.05055%; Leishmania in macrophages: 6.683% & 0.2787%. O=C(O)C(F)(F)F.O=C(O)C(F)(F)F.[H][C@]12CCN(c3ncccn3)[C@@]1([H])C[C@@H](C(=O)NCc1cccnc1)O2 gave T. brucei: -20.62%; Leishmania in macrophages: 4.628%. For CCC(NC(=O)C1CCN(S(C)(=O)=O)CC1)c1ccc(OC)c(OC)c1 (stereo not drawn) the result was T. brucei: 13.17%; Leishmania in macrophages: 13.33%.

Cc1ccc2[nH]c(-c3cn(C4CCNCC4)nn3)nc2c1C read T. brucei: -22.65%; Leishmania in macrophages: 79.71%. CCCN(C)c1ccc(C(=O)NCc2ccnc(C)n2)cc1 read T. brucei: 6.219%; Leishmania in macrophages: 7.945%. With O=C(O)C(F)(F)F.O=C(c1ncccn1)N1CCC[C@]2(C[C@@H](Oc3ncccc3F)CO2)C1 the screen gave T. brucei: -50.46%; Leishmania in macrophages: -9.266%. Result for CC(c1nc(C2CC2)no1)N(C)Cc1ccc(Cl)cc1 (stereo not drawn) was T. brucei: -41.8%; Leishmania in macrophages: 9.194%. With CO[C@H]1CN(C(=O)c2cc3ccccc3[nH]2)CC[C@H]1N the screen gave T. brucei: -21.96%; Leishmania in macrophages: 19.11%. CNC(=O)COC1COC2(CCN(Cc3cccnc3)CC2)C1.O=C(O)C(F)(F)F (stereo not drawn) read T. brucei: -44.61%; Leishmania in macrophages: 23.36%. For Cc1cc(CNC(=O)NCc2cccs2)no1 the result was T. brucei: -4.945%; Leishmania in macrophages: -1.078%. With O=C(CNCC1(O)CCCN(Cc2cccc(F)c2F)C1=O)NC1CC1 (stereo not drawn) the screen gave T. brucei: -20.32%; Leishmania in macrophages: -18.63%.

For Cc1cc(N(C)C)nc(N2CCCC2c2cccnc2)n1 (stereo not drawn) the result was T. brucei: -53.94%; Leishmania in macrophages: 29.08%. For O=C(c1ccc(C2CCCO2)s1)N1Cc2ccccc2C1 (stereo not drawn) the result was T. brucei: -4.926%; Leishmania in macrophages: 21.47%. With [H][C@]12C[C@H](C(=O)NC)N(C)[C@@]1([H])CN(C(=O)c1ccncc1F)C2 the screen gave T. brucei: -31.09%; Leishmania in macrophages: -23.19%. CC(C)N1CCC(CC(=O)N(C)C(C)c2cncs2)CC1 (stereo not drawn) read T. brucei: 6.643%; Leishmania in macrophages: 20.3%. Result for [H][C@@]12CN(C(=O)c3ccoc3COc3ccc(C)cc3)C[C@]1([H])[C@H]2CN(C)C was T. brucei: -105.9%; Leishmania in macrophages: 26.7%.

Once more, the final 2:

CC(C)N1CCC(CC(=O)N(C)C(C)c2cncs2)CC1 (stereo not drawn) gave T. brucei: 6.643%; Leishmania in macrophages: 20.3%.
[H][C@@]12CN(C(=O)c3ccoc3COc3ccc(C)cc3)C[C@]1([H])[C@H]2CN(C)C gave T. brucei: -105.9%; Leishmania in macrophages: 26.7%.